Measurements published in publication PMC7231995.
These are yes or no findings as the source states them, for the method shown. In cells and extracts the contact can be indirect. A yes stands for co-enrichment or nearness to the bait. Other partners may have been found. Where a sequence is shown, tags or fusion partners need not be part of it.

T1: YqgP.S288A-sfGFP (catalytically dead YqgP fused with sfGFP) (Bacillus subtilis) (UniProt P54493)
T1 sequence: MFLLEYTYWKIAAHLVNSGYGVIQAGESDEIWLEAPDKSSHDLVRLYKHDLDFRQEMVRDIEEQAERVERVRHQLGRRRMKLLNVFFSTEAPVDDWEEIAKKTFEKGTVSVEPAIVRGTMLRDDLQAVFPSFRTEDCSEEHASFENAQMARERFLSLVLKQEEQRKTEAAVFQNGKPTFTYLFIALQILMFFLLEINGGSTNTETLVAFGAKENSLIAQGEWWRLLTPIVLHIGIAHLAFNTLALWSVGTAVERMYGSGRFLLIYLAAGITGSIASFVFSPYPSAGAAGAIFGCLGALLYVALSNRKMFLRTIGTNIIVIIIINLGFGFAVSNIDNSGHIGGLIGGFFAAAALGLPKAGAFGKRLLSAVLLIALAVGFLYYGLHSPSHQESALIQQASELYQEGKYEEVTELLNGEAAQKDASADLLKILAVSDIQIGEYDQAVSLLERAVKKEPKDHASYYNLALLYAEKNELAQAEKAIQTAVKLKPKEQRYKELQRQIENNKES

T2: YqgP-sfGFP (functional fusion of Bacillus subtilis rhomboid protease YqgP with sfGFP) (Bacillus subtilis) (UniProt P54493)
T2 sequence: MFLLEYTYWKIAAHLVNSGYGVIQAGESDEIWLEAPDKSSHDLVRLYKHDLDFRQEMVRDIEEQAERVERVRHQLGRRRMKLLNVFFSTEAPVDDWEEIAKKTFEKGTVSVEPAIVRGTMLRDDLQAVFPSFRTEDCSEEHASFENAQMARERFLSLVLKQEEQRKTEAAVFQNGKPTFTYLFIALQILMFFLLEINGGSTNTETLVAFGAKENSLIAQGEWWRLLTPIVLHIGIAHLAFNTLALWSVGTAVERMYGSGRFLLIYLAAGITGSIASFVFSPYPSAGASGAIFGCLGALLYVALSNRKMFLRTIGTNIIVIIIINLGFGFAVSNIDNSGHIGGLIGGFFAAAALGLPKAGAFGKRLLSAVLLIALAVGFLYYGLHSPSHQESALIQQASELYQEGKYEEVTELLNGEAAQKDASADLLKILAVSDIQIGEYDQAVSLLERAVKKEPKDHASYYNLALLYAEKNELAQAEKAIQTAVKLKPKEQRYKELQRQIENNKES


How the values were obtained:
[1] = target: T1, YqgP.S288A-sfGFP (catalytically dead YqgP fused with sfGFP) (Bacillus subtilis); assay: affinity purification with mass spectrometry; YqgP-sfGFP baits captured on anti-GFP antibody resin (Chromotek) from B. subtilis membranes solubilised with 1% NP-40, 3 h at 4°C; label-free NanoLC-MS/MS; control: wild-type strain BTM2 without bait
[2] = target: T2, YqgP-sfGFP (functional fusion of Bacillus subtilis rhomboid protease YqgP with sfGFP) (Bacillus subtilis); assay: as above

Row | binding [1] | binding [2] | Binder
1 | binds | binds | MgtE, high-affinity magnesium transporter (protein, UniProt O34442 1-451) MVQNMTYDELILRIIILLRDGKIRDFRSVIDELQPYDMAFIFKEMPEKHRARYLSYLTVDDITDMIGELEREFQLVVLNKVGKTKATLAMNKMDNDDLAQLLEEMDEELKEQLLSSMEASESKAVQLLMNYPADSAGRMMTNRYVWIPQHYTVKDAVVKLKSFAEIAESINYLYVINESKQLVGVLSYRDLILGEPEEKVQDLMFTRVISADALQDQEEVARLIERYDFLAIPVVEENNVLVGIVTVDDIIDVVIREADEDYEKFAASGKDITFDTKAYVAAYRRLPWLILLLFIGLISGSIISYFEDALKQVVALAFFMPMVSGMTGNTGTQSLAVVIRGLSKEEMNKKTIVRLIFREFRTSIFIGAVCSVLIAIVSIIWQGNALLGFVVASSLFLTLIIGTMSGTIIPIILHKLKVDPAIASGPLITTLNDILSLLIYFGIATAFIHSL
2 | binds | binds | ATPase subunit F (protein, UniProt P37814 1-170) MSQLPLELGLSFNGGDILFQLLAMLILLALLKKYALGPLLNIMKQREDHIAGEITSAEEKNKEAQQLIEEQRVLLKEARQESQTLIENAKKLGEKQKEEIIQAARAESERLKEAARTEIVKEKEQAVSALREQVASLSVMIASKVIEKELDEQAQEKLIQDYLKEVGESR
